This passage reports log2 fold change results from the supplement of paper PMC12819154, “High-throughput peptide-centric local stability assay extends protein–ligand identification to membrane proteins, tissues and bacteria” (Nature Structural & Molecular Biology, 2025).

Sequences of proteins named here, by UniProt entry; tags and fusion partners are left off. A change or cut given only in a name is not applied to a line headed by its entry.
UniProt Q5SQI0: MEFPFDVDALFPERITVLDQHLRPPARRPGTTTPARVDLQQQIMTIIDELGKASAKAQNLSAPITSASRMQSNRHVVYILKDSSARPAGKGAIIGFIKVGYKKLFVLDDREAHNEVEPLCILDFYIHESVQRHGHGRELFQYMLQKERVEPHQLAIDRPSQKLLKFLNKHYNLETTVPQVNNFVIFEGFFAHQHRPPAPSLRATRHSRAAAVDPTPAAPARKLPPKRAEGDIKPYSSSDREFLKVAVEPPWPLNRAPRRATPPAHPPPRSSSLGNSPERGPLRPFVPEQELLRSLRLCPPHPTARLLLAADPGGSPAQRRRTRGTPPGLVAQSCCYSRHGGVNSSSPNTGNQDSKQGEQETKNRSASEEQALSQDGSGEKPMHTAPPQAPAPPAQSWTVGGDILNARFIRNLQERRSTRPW
UniProt Q49A26: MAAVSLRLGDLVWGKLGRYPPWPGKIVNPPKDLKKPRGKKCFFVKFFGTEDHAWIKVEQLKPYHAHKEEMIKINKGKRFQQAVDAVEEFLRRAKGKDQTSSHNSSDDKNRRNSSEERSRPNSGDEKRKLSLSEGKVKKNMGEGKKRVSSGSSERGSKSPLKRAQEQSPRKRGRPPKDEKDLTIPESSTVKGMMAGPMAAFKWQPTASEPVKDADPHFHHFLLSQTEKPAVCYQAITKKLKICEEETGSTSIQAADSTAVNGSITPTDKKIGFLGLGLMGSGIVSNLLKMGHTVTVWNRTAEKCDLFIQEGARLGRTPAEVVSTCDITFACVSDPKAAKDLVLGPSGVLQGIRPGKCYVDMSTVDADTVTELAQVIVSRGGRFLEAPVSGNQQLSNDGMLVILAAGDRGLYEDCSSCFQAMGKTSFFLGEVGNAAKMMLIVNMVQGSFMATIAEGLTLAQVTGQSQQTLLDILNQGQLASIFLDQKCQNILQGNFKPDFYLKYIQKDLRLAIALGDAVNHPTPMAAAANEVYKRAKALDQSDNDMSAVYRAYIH
UniProt Q5SXM2: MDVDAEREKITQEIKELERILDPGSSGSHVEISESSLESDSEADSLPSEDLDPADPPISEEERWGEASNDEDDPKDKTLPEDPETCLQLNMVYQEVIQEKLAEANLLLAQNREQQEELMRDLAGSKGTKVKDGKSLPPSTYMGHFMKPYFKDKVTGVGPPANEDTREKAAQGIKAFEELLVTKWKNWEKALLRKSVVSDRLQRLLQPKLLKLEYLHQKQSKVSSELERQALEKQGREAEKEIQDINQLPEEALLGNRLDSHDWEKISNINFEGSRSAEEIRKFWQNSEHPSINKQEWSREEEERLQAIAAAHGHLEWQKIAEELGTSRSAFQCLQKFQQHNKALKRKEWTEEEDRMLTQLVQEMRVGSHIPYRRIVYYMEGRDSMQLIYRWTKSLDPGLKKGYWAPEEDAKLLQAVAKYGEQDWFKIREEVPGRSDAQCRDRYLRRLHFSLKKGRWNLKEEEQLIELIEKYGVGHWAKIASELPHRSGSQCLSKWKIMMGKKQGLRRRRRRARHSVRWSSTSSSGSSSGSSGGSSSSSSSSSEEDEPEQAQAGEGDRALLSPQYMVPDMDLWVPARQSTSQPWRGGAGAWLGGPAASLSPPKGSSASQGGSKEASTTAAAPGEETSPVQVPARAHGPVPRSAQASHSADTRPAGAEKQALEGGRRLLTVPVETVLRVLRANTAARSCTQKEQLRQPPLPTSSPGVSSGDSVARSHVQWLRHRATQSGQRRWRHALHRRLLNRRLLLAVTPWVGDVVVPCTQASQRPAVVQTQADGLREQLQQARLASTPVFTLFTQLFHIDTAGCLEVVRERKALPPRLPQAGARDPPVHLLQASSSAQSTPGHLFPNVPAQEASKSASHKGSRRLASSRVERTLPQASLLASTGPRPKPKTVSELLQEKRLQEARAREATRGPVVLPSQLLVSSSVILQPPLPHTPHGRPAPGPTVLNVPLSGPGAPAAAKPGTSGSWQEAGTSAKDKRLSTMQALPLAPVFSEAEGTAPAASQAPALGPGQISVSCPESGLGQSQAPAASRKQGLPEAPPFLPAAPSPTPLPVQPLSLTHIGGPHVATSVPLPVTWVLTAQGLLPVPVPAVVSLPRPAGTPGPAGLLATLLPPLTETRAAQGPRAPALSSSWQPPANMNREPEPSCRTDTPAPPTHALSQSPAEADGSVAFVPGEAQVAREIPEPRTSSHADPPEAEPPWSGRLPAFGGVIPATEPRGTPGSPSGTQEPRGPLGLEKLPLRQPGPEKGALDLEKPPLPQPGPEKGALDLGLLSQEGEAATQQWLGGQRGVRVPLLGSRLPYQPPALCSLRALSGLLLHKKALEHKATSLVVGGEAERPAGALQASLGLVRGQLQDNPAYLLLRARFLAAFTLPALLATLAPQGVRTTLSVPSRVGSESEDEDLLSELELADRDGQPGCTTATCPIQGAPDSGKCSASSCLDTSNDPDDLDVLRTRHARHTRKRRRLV
UniProt Q5JS54: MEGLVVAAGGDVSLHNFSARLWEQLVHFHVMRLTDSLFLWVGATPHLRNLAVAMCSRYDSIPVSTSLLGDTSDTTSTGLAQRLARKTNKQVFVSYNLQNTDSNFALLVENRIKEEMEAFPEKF
UniProt Q5BKZ1: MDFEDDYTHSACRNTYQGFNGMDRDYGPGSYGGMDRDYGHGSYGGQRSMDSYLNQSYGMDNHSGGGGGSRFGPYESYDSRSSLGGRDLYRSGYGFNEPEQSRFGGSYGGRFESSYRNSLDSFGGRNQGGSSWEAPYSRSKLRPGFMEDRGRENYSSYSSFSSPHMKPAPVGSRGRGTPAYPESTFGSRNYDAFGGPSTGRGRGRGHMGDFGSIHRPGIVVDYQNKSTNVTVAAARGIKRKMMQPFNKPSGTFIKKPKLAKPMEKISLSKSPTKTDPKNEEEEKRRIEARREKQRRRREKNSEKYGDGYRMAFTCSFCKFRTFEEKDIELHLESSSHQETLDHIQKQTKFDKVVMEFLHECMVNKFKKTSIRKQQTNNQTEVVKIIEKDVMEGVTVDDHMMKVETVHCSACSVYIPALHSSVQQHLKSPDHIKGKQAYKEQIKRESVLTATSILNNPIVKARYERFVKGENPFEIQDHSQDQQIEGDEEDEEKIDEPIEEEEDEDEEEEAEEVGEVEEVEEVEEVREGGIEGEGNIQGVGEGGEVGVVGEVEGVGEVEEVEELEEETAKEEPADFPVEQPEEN
UniProt Q53R41: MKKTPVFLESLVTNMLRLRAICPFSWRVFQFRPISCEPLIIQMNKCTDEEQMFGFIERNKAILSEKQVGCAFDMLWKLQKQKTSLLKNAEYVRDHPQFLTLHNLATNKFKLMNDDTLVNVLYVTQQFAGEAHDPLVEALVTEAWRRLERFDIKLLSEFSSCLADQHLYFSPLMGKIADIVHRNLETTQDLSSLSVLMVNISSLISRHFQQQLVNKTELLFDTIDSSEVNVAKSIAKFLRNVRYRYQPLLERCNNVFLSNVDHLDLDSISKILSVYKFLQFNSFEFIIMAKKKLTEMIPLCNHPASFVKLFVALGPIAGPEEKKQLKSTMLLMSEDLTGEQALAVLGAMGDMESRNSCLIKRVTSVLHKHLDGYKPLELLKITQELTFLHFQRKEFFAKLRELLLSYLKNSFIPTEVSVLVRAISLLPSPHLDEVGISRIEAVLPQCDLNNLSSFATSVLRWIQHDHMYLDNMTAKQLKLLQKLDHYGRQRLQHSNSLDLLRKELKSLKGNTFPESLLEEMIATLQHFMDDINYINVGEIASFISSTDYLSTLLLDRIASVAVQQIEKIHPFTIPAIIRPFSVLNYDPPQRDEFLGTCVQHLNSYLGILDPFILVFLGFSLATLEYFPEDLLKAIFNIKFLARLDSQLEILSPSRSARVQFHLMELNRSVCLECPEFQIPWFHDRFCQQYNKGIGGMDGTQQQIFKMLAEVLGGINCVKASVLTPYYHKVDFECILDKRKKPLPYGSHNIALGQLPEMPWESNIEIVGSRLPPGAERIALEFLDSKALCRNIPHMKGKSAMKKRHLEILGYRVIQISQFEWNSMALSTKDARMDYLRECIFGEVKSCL
UniProt Q5SRN2: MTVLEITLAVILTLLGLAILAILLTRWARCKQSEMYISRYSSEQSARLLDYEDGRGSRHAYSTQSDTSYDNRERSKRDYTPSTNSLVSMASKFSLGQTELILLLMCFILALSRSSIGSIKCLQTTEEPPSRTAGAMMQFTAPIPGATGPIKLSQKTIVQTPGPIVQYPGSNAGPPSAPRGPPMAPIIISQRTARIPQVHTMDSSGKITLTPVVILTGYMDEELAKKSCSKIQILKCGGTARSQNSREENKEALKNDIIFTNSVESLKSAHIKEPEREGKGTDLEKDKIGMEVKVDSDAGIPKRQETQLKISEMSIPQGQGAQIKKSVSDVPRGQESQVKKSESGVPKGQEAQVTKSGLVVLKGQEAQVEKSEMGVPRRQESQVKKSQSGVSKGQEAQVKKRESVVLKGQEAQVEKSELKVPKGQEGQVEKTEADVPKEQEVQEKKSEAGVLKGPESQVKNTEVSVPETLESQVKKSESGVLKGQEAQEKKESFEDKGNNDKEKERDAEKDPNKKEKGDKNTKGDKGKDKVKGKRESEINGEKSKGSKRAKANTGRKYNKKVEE

The other results are listed elsewhere or left out. Most values lie at the level of the controls, where differences are scatter.

Compound in this test: Cc1nc(Nc2ncc(C(=O)Nc3c(C)cccc3Cl)s2)cc(N2CCN(CCO)CC2)n1 [dasatinib]
Kind of test: log2 fold change of tryptic peptide abundance, ligand vs vehicle (limited proteolysis) (log2 ratio); higher = more trypsin-susceptible (destabilized). The note with it: ligand concentration: 5 uM; sample: K562 cleared lysate.
As for “C6ORF134 (peptide sequence: AQNLSAPITSASR, peptide start residue: 57) (UniProt Q5SQI0)”, the log2 fold change was -0.435.

For the target “GLYR1 (peptide sequence: VEQLKPYHAHKEEMIK, peptide start residue: 57) (UniProt Q49A26)”, the log2 fold change was -0.159.

“SNAPC4 (peptide sequence: TLPQASLLASTGPRPKPK, peptide start residue: 874) (UniProt Q5SXM2)”: the log2 fold change was -0.335.

As to “PSMG4 (peptide sequence: IKEEMEAFPEKF, peptide start residue: 112) (UniProt Q5JS54)”, the log2 fold change was found to be 0.172.

Consider “ZNF326 (peptide sequence: SPTKTDPKNEEEEK, peptide start residue: 270) (UniProt Q5BKZ1)”, for which the log2 fold change was 0.417.

Take “FASTKD1 (peptide sequence: ITQELTFLHFQR, peptide start residue: 381) (UniProt Q53R41)”: the log2 fold change was -0.441.

With “FSIP2 (peptide sequence: KASDSTEAALK, peptide start residue: 3276) (UniProt Q5CZC0)”, the log2 fold change is -0.058.

Regarding “UniProt Q5SRN2 (peptide sequence: KSCSKIQILK, peptide start residue: 226)”, the log2 fold change is -0.0416.
